{
  "source": "PubChem BioAssay AID186",
  "about": "(DTP/NCI, 2004)",
  "test_system": "B6D2F1 mice, nontumored toxicity test, survival",
  "test": "NCI In Vivo Anticancer Drug Screen. Data for tumor model Nontumored Animals (Toxicity Test) in B6D2F1 (BDF1) mice",
  "note": "Values are animals surviving of animals treated; these mice carried no tumour. Counts of survivors are from the toxicity check (mostly the fifth day) where no day follows; animals may have died later. Schedules are NCI's codes, taken here to give the interval after Q, in days (D) or hours (H), and the number of doses after X. Some schedules carry Z or #; the key to these is not given.",
  "data": [
    {"smiles": "COC1=C(N)C(=O)c2nc(-c3nc(C(=O)O)c(C)c(-c4ccc(OC)c(OC)c4O)c3N)ccc2C1=O", "values": [
      {"measurement": "survivor count", "setting": "dose: 0.02 mg/kg/injection, schedule: Q03HX008 (ip), vehicle: other", "result": "8 of 8"}
    ]},
    {"smiles": "Nc1n[nH]c(N)n1", "values": [
      {"measurement": "survivor count", "setting": "dose: 100.0 mg/kg/injection, schedule: Q## X004 (ip), vehicle: water", "result": "8 of 8"},
      {"measurement": "survivor count", "setting": "dose: 200.0 mg/kg/injection, schedule: Q## X004 (ip), vehicle: water", "result": "8 of 8"},
      {"measurement": "survivor count", "setting": "dose: 400.0 mg/kg/injection, schedule: Q## X004 (ip), vehicle: water", "result": "8 of 8"},
      {"measurement": "survivor count", "setting": "dose: 800.0 mg/kg/injection, schedule: Q## X004 (ip), vehicle: water", "result": "8 of 8"},
      {"measurement": "survivor count", "setting": "dose: 1600.0 mg/kg/injection, schedule: Q## X004 (ip), vehicle: water", "result": "8 of 8"},
      {"measurement": "survivor count", "setting": "dose: 3200.0 mg/kg/injection, schedule: Q## X004 (ip), vehicle: water", "result": "7 of 8"}
    ]},
    {"smiles": "CO[C@H](C(=O)[C@@H](O)[C@@H](C)O)[C@@H]1Cc2cc3cc(OC4CC(OC5CC(O)C(O)C(C)O5)C(O)C(C)O4)c(C)c(O)c3c(O)c2C(=O)[C@H]1OC1CC(OC2CC(OC3CC(C)(O)C(O)C(C)O3)C(O)C(C)O2)C(O)C(C)O1", "note": "(stereo not given in full)", "values": [
      {"measurement": "survivor count", "setting": "dose: 0.01 mg/kg/injection, schedule: Q03HX024 (ip), vehicle: water", "result": "6 of 6"},
      {"measurement": "survivor count", "setting": "dose: 0.02 mg/kg/injection, schedule: Q03HX016 (ip), vehicle: water", "result": "5 of 6"},
      {"measurement": "survivor count", "setting": "dose: 0.02 mg/kg/injection, schedule: Q03HX024 (ip), vehicle: water", "result": "6 of 6"},
      {"measurement": "survivor count", "setting": "dose: 0.04 mg/kg/injection, schedule: Q03HX008 (ip), vehicle: water", "result": "6 of 6"},
      {"measurement": "survivor count", "setting": "dose: 0.04 mg/kg/injection, schedule: Q03HX016 (ip), vehicle: water", "result": "6 of 6"},
      {"measurement": "survivor count", "setting": "dose: 0.04 mg/kg/injection, schedule: Q03HX024 (ip), vehicle: water", "result": "6 of 6"},
      {"measurement": "survivor count", "setting": "dose: 0.09 mg/kg/injection, schedule: Q01DX009 (ip), vehicle: water", "result": "6 of 6"},
      {"measurement": "survivor count", "setting": "dose: 0.09 mg/kg/injection, schedule: Q03HX008 (ip), vehicle: water", "result": "5 of 6"},
      {"measurement": "survivor count", "setting": "dose: 0.09 mg/kg/injection, schedule: Q03HX016 (ip), vehicle: water", "result": "6 of 6"},
      {"measurement": "survivor count", "setting": "dose: 0.09 mg/kg/injection, schedule: Q03HX024 (ip), vehicle: water", "result": "6 of 6"},
      {"measurement": "survivor count", "setting": "dose: 0.09 mg/kg/injection, schedule: Q04DX003 (ip), vehicle: water", "result": "5 of 6"},
      {"measurement": "survivor count", "setting": "dose: 0.19 mg/kg/injection, schedule: Q01DX009 (ip), vehicle: water", "result": "6 of 6"},
      {"measurement": "survivor count", "setting": "dose: 0.19 mg/kg/injection, schedule: Q03HX008 (ip), vehicle: water", "result": "3 of 6"},
      {"measurement": "survivor count", "setting": "dose: 0.19 mg/kg/injection, schedule: Q03HX016 (ip), vehicle: water", "result": "6 of 6"},
      {"measurement": "survivor count", "setting": "dose: 0.19 mg/kg/injection, schedule: Q03HX024 (ip), vehicle: water", "result": "1 of 6"},
      {"measurement": "survivor count", "setting": "dose: 0.19 mg/kg/injection, schedule: Q04DX003 (ip), vehicle: water", "result": "6 of 6"},
      {"measurement": "survivor count", "setting": "dose: 0.19 mg/kg/injection, schedule: Q08DX002 (ip), vehicle: water", "result": "6 of 6"},
      {"measurement": "survivor count", "setting": "dose: 0.37 mg/kg/injection, schedule: Q01DX001 (ip), vehicle: water", "result": "6 of 6"},
      {"measurement": "survivor count", "setting": "dose: 0.37 mg/kg/injection, schedule: Q01DX009 (ip), vehicle: water", "result": "6 of 6"},
      {"measurement": "survivor count", "setting": "dose: 0.37 mg/kg/injection, schedule: Q03HX008 (ip), vehicle: water", "result": "0 of 6"},
      {"measurement": "survivor count", "setting": "dose: 0.37 mg/kg/injection, schedule: Q03HX016 (ip), vehicle: water", "result": "0 of 6"},
      {"measurement": "survivor count", "setting": "dose: 0.37 mg/kg/injection, schedule: Q04DX003 (ip), vehicle: water", "result": "6 of 6"},
      {"measurement": "survivor count", "setting": "dose: 0.37 mg/kg/injection, schedule: Q08DX002 (ip), vehicle: water", "result": "6 of 6"},
      {"measurement": "survivor count", "setting": "dose: 0.75 mg/kg/injection, schedule: Q01DX001 (ip), vehicle: water", "result": "6 of 6"},
      {"measurement": "survivor count", "setting": "dose: 0.75 mg/kg/injection, schedule: Q01DX009 (ip), vehicle: water", "result": "5 of 6"},
      {"measurement": "survivor count", "setting": "dose: 0.75 mg/kg/injection, schedule: Q04DX003 (ip), vehicle: water", "result": "5 of 6"},
      {"measurement": "survivor count", "setting": "dose: 0.75 mg/kg/injection, schedule: Q08DX002 (ip), vehicle: water", "result": "6 of 6"},
      {"measurement": "survivor count", "setting": "dose: 1.5 mg/kg/injection, schedule: Q01DX001 (ip), vehicle: water", "result": "6 of 6"},
      {"measurement": "survivor count", "setting": "dose: 1.5 mg/kg/injection, schedule: Q01DX009 (ip), vehicle: water", "result": "6 of 6"},
      {"measurement": "survivor count", "setting": "dose: 1.5 mg/kg/injection, schedule: Q04DX003 (ip), vehicle: water", "result": "6 of 6"},
      {"measurement": "survivor count", "setting": "dose: 1.5 mg/kg/injection, schedule: Q08DX002 (ip), vehicle: water", "result": "5 of 6"},
      {"measurement": "survivor count", "setting": "dose: 3.0 mg/kg/injection, schedule: Q01DX001 (ip), vehicle: water", "result": "2 of 6"},
      {"measurement": "survivor count", "setting": "dose: 3.0 mg/kg/injection, schedule: Q08DX002 (ip), vehicle: water", "result": "2 of 6"}
    ]}
  ]
}
